# Primary screen of a compound library

Protein sequences, listed by entry. Tags and fused reporters are not part of them.
UniProt E9BF75, entry or part of it: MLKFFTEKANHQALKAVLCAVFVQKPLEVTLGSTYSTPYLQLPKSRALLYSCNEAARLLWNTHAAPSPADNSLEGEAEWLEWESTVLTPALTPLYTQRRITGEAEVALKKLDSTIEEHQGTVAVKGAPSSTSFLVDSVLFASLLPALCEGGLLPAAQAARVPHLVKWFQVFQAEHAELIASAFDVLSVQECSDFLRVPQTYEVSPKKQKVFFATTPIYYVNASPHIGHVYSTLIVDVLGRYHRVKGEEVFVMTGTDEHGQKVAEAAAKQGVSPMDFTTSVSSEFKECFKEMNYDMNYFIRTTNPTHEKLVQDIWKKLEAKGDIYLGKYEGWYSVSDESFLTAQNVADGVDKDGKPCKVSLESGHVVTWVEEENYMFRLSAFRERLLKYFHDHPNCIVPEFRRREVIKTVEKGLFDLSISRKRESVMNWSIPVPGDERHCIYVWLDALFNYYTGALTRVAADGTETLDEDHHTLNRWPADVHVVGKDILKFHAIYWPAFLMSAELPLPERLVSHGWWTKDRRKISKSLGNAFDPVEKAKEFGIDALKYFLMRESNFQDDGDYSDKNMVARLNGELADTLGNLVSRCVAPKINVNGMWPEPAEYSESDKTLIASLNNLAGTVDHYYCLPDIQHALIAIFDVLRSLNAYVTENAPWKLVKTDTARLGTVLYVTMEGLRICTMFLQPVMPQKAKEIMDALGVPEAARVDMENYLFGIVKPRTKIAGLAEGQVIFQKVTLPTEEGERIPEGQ

Mtb heat-shock: 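Assay on Mycobacterium tuberculosis, filed only as a heat shock assay from Cornell; the read-out is not stated. The concentration is filed as 10 mM, unlikely as a test dose, so the dose is not known. Higher reads as stronger inhibition (inferred: compounds with an IC50 in retests scored well above the rest). Size under these conditions: about 69,000 compounds, about 930 of them at 50% or above in at least one test.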
LdMetRS: 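Primary screen of methionyl-tRNA synthetase; the read-out is not stated. Target: Methionyl-tRNA synthetase (putative), Leishmania donovani (UniProt E9BF75). The test concentration is not given. The values are filed as inhibition. Of about 68,000 compounds tested this way, about 24 (0.035%) reached 50% or more in at least one test.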
Mtb growth Cornell: 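Whole-cell assay for inhibitors of Mycobacterium tuberculosis growth, labelled Cornell in the record; the read-out is not stated. The concentration is filed as 10 mM, unlikely as a test dose, so the dose is not known. Higher means stronger inhibition (inferred from two other growth screens of the library). Of about 53,000 compounds tested this way, about 900 (1.7%) reached 50% or more in at least one test.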

Results are percentages, as filed. The controls that fix the scale are not given in the record; negative values are as filed. Compounds were drawn at random from those tested, without regard to their results. A dash means the value is not listed here; it may have been measured.

SMILES | Mtb heat-shock | LdMetRS | Mtb growth Cornell
COc1ccccc1OC1CCN(C(=O)CCCn2ccnc2)CC1 | -26.28 | 3.425 | -4.593
CC(C)N1CCc2onc(Cn3cccn3)c2C1 | 8.733 | 20.44 | -15.76
Cc1cnn(C2CN(Cc3ccc4c(c3)OCCO4)C2)c1 | 9.848 | 17.56 | 36.92
Cc1cnn(CC2CCCN2C(=O)c2cc3ccccc3c(=O)[nH]2)c1 (centres unmarked) | 4.909 | 17.13 | -
COCCC1CCN([C@@H]2c3ccccc3C3(CCNCC3)[C@H]2O)CC1 | -20.51 | 17.35 | 12.78
O=C(NC1CCCC1)c1nc2c(o1)CN(C(=O)CO)C2 | 10.14 | -140.1 | -17.09
CN(C)C(=O)C1CN(Cc2cccs2)CCN(S(C)(=O)=O)C1 (centres unmarked) | -7.55 | 16.15 | 16.09
CC(C)c1ccc(CN2CCN(C(=O)c3cc(C4CC4)[nH]n3)CC2)cc1 | -19.8 | 7.778 | -22.19
[H][C@]12CCN(C(C)=O)[C@@]1([H])C[C@@H](C(=O)Nc1nc(C)cs1)O2 | 12.35 | - | -1.283
COc1ccc(-c2nc3c([nH]2)CCNC3)c(OC)c1OC | -29.13 | 5.385 | 9.59
Cc1nc(Nc2cnccn2)cc(C2CN(C(C)C)C2)n1.O=CO | -9.635 | - | -22.96
COCC(=O)N1CCCCC1c1nc(C)c2c(n1)N(CC1CC1)C(=O)C2 (centres unmarked) | 4.596 | 15.56 | 20.28
COc1cc(CN)c(OC)c2c1OCO2.Cl | -0.4657 | - | -27.96
CCOCC(=O)Nc1cc(-n2nnnc2C2CC2)ccc1F | 7.26 | 10.31 | -3.025
O=c1[nH]c2nc(N3CCCCCC3)ncc2c(=O)n1-c1cccc(F)c1 | 9.543 | 11.33 | 26.43
Cc1cnc(CN(C)C2CCN(CCc3ccccn3)CC2)cn1 | -12.47 | 9.841 | 2.538
CN(C)C(=O)COC1COC2(CCN(c3cnccn3)CC2)C1.O=C(O)C(F)(F)F (centres unmarked) | -1.416 | - | 13.95
COc1cccc(COCC(O)CN2CC(n3cccn3)C2)c1 (centres unmarked) | 15.91 | 15.31 | -
CN(C(=O)Cn1nc(-c2ccccc2Cl)ccc1=O)C1CCS(=O)(=O)C1 (centres unmarked) | 15.08 | 8.788 | 6.792
O=C(CCN1CCOC(CNc2cccnn2)C1)NC1CCCCC1 (centres unmarked) | -13.83 | 1.705 | -
CCNC(=O)NC(=O)CN1CCOC(c2ccccc2Cl)C1 (centres unmarked) | 4.882 | 7.246 | -1.519
[H][C@]12CCN(C(=O)NC)CC[C@@]1([H])S(=O)(=O)N(Cc1cccnc1)C2 | 1.862 | - | -7.125
Cc1nn(C)c2nc(C3CC3)c(Cl)c(C(=O)O)c12 | -35.58 | 9.399 | 16.17
Cc1cnn(C2CCCN(C(=O)CCc3c(C)noc3C)C2)c1 (centres unmarked) | -0.4735 | 18.89 | 9.36
COCc1nc(C(=O)N2CCCC(n3ccnc3C(C)C)C2)cs1 (centres unmarked) | -9.882 | 15.34 | -
NS(=O)(=O)c1ccc(CC(=O)N2CCCC(n3cccn3)C2)cc1 (centres unmarked) | 3.605 | 4.467 | -9.133
C=C(C)CN1CCN(Cc2cnc(-c3ccccc3C)nc2)CC1.O=C(O)CC(O)(CC(=O)O)C(=O)O | 1.349 | - | -5.439
O=C(Nc1cc(C2CCOCC2)[nH]n1)c1cscn1 | -28.32 | 9.023 | -
[H][C@]12CNCCN1C[C@@H](c1ccccc1)[C@@H]2C(=O)NC | 19.95 | - | 15.05
Cc1cnc(N2C[C@@H]3[C@@H](C2)OCC(=O)N3C)nc1 | - | 17.39 | -
Cc1ncc(S(C)(=O)=O)c(N(C)CCCc2cnn(C)c2)n1 | -1.808 | 3.763 | 4.922
CN1CC(=O)N(c2ccsc2)CC12CCN(S(C)(=O)=O)C2 (centres unmarked) | - | 8.571 | -
Cc1n[nH]cc1C(=O)N1CCCC(n2nnc3cc(F)ccc32)C1 (centres unmarked) | -188.3 | 15.68 | -
CCNc1ncc(C(=O)NCCCc2ccncc2)cn1 | -10.07 | 10.05 | -3.482
Cc1ccc(-c2noc(CC[C@@H]3CCCN4CCCC[C@H]34)n2)nn1 | - | 6.4 | -
Cc1ccc2nc(C3CCCN3Cc3scnc3C)[nH]c2c1 (centres unmarked) | 1.494 | 6.145 | 14.46
Cn1cnc2c1C(COCC1CCOCC1)CN(Cc1ccccn1)C2.O=C(O)C(F)(F)F.O=C(O)C(F)(F)F.O=C(O)C(F)(F)F (centres unmarked) | -14.56 | - | 14.91

The first 2 entries again:

- COc1ccccc1OC1CCN(C(=O)CCCn2ccnc2)CC1 | Mtb heat-shock: -26.28%; LdMetRS: 3.425%; Mtb growth Cornell: -4.593%
- CC(C)N1CCc2onc(Cn3cccn3)c2C1 | Mtb heat-shock: 8.733%; LdMetRS: 20.44%; Mtb growth Cornell: -15.76%

Measurements from “University of Dundee, Small-Polar-MMV Screening Library” (2021), ChEMBL document CHEMBL3988442.